Data: the supplement of paper PMC10849652
This is one part of the list.

By UniProt entry, the sequences of proteins in these tests, tags left out. Where a name states a change or a piece, a line headed by the entry shows the natural chain unless it says otherwise.
UniProt Q14773: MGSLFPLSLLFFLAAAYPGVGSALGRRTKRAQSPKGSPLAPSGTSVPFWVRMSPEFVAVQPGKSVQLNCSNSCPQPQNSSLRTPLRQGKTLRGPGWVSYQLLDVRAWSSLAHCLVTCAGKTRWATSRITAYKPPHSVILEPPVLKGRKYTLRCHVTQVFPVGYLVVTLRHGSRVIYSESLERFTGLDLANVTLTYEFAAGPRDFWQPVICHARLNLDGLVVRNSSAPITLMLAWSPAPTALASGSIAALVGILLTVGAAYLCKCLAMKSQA
UniProt Q9UK53: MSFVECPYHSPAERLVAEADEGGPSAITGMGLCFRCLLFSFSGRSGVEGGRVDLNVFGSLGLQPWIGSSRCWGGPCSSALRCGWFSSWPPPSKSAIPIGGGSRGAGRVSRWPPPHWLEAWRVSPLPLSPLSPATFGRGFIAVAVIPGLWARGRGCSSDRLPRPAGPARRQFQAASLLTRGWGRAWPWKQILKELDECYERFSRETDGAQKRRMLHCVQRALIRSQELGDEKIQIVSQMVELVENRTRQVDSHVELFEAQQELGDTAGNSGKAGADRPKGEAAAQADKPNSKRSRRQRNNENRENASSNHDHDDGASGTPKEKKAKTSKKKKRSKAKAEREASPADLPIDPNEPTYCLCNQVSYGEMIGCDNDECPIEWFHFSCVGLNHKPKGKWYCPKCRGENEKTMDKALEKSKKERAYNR
UniProt P38935: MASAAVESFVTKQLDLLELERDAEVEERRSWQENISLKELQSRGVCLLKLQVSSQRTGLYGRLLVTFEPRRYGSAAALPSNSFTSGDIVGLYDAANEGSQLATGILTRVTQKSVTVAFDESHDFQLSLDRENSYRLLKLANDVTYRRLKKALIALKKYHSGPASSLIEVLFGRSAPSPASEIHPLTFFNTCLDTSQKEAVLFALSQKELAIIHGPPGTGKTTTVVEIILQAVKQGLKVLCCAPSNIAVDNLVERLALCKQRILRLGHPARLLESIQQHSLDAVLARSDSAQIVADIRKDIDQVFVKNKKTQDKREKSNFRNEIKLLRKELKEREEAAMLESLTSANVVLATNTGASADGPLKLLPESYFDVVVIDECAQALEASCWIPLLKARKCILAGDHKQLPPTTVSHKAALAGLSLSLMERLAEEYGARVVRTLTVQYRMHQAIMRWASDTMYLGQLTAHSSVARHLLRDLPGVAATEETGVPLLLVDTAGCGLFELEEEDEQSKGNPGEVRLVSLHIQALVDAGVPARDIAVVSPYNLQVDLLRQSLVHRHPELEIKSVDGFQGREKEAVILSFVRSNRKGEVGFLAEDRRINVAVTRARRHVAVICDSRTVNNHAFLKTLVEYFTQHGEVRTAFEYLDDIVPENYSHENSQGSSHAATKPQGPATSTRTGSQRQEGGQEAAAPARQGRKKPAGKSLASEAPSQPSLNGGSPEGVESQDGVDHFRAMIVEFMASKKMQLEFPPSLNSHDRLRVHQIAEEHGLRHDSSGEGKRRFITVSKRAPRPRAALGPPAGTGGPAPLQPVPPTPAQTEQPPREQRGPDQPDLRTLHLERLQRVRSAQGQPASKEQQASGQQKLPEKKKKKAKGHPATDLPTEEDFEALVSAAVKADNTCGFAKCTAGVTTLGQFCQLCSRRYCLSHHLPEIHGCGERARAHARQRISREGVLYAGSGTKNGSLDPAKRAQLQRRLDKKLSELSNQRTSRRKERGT
UniProt P50213: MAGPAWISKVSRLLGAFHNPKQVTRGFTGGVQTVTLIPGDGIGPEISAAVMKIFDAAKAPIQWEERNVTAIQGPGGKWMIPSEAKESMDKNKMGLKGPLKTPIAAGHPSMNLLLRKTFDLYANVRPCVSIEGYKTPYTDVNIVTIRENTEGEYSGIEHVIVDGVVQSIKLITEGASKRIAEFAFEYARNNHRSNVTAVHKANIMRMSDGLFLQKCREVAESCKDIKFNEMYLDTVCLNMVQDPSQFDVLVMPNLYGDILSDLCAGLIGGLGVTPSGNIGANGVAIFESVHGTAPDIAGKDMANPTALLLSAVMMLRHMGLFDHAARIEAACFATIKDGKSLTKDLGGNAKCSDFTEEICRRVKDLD
UniProt P22692: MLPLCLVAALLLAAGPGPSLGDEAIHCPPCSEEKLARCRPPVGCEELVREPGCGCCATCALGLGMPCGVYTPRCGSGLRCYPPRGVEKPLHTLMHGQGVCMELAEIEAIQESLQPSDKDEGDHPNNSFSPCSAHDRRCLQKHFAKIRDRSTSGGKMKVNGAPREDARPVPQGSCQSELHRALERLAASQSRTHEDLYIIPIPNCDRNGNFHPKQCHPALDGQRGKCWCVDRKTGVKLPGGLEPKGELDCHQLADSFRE
UniProt Q96D96: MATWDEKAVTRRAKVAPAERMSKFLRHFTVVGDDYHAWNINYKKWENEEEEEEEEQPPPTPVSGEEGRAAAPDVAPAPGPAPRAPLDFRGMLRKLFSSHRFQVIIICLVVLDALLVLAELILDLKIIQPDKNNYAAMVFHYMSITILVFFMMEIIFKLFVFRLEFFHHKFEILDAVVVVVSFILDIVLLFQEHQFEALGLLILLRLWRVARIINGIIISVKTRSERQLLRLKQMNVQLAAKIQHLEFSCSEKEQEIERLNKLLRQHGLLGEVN
UniProt Q96EW2: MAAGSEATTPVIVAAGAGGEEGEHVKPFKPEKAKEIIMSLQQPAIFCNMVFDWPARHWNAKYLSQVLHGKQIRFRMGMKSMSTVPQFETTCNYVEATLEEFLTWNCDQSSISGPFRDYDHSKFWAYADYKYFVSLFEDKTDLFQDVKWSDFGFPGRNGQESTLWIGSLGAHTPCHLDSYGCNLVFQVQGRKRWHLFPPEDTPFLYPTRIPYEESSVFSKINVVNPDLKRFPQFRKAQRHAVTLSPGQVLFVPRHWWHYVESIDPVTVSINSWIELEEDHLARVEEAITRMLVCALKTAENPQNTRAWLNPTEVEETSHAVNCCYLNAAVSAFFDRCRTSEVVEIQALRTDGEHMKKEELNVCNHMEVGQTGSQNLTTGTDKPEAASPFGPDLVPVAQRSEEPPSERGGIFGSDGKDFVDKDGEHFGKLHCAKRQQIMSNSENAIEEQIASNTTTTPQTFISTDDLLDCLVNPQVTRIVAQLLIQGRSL
UniProt P80217: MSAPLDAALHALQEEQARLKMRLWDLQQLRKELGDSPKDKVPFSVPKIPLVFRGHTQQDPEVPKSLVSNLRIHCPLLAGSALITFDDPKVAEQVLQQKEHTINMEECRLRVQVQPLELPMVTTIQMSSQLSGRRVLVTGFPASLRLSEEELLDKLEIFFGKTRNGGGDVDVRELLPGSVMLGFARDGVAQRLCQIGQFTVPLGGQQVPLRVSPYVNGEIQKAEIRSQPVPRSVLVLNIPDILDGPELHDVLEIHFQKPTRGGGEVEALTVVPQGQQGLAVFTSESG

What was measured:
Assay in all cases: log2 fold change, soluble protein after heating vs DMSO (PISA); higher = thermal stabilisation; K562 lysate, 10 uM; active = over 0.2 and 3.5 SD of the protein, either way, in both replicates (recomputed)
[1] = compound: C1=CC=C(C=C1)[C@H](COC2=CC3=C(C=C2)NC(=O)N3)NC(=O)C4=CC=CN(C4=O)CC5=CC(=C(C=C5)F)F
Procedure, shortened: (§1)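 Dounce homogenisation of K562 pellets in PBS pH 7.4 with 1 mM MgCl2 produced a crude extract, used at 1 mg/mL protein. Exposure to 10 μM compound lasted 30 min, and aliquots were then heated for 3 min across 48°C-58°C, pooled and brought to 0.5% NP-40 at 4°C. The supernatant after 21,000xg for 90 min was quantified by TMTpro 16plex LC-MS/MS with channel sums equalised. Duplicate values are given as log-two fold change in thermal stability relative to solvent controls.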

[2] = compound: CC1=C(SC2=C1C(=N[C@H](C3=NN=C(N32)C)CC(=O)N)C4=CC=C(C=C4)Cl)C
Procedure, shortened: as §1

[3] = compound: Cc1sc2c(c1C)C(c1ccc(Cl)cc1)=N[C@@H](CC(=O)OC(C)(C)C)c1nnc(C)n1-2
Procedure, shortened: as §1

[4] = compound: c1ccc([C@@H]2C[C@H]2NC2CCNCC2)cc1
Procedure, shortened: as §1

[5] = compound: CC1=C2C(=CC=C1)N=C(N(C2=O)C3=CC=CC=C3C)CN4C=NC5=C(N=CN=C54)N
Procedure, shortened: as §1

Measured: log2 fold change

ICAM4 (UniProt Q14773)
inactive: [1] -0.13 | [2] -0.169 | [3] 0.016 | [4] 0.03

ING1 (UniProt Q9UK53)
inactive: [1] 0.119 | [2] -0.207 | [3] -0.006 | [4] -0.04

IGHMBP2 (UniProt P38935)
inactive: [1] 0.021 | [2] 0.109 | [3] -0.028

IDH3A (UniProt P50213)
inactive: [1] 0.003 | [2] -0.007 | [5] -0.041 | [3] 0.015 | [4] -0.021

IGFBP4 (UniProt P22692)
inactive: [1] 0.135 | [2] -0.099 | [3] -0.032 | [4] -0.171

HVCN1 (UniProt Q96D96)
inactive: [1] 0.078 | [2] 0.019 | [4] -0.266

HSPBAP1 (UniProt Q96EW2)
inactive: [1] 0.069 | [2] -0.022 | [3] 0.065 | [4] 0.006

IGLC3 (UniProt P0DOY3)
inactive: [1] 0.295 | [2] -0.119 | [3] -0.536 | [4] -0.295

IFI35 isoform 2 (UniProt P80217)
inactive: [1] 0.006 | [2] 0.014 | [5] 0.004 | [3] 0.014 | [4] -0.052
